Data: patent US20030060416A1
These are yes or no findings as the source states them, for the method shown. In cells and extracts the contact can be indirect. Some results given as binding are weak or reduced against the parent protein; the word gives no strength.

Sequences of proteins named here, by UniProt entry; tags and fusion partners are left off.
UniProt Q07817: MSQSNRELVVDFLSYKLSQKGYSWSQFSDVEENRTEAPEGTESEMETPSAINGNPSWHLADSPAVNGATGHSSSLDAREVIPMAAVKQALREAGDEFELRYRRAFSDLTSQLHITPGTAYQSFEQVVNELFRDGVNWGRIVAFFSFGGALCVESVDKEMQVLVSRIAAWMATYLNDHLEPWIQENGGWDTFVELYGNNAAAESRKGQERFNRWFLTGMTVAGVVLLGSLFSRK
UniProt Q13323: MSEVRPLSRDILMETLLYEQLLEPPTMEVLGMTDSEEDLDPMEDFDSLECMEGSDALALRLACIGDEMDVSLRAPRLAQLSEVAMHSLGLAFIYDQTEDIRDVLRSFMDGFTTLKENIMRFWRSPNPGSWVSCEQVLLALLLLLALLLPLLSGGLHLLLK

Columns and labels:
[1] = target: GST-Bcl-2 fusion protein (human) [GST: P08515]; experiment: GST pull-down of 35S-labeled protein, SDS-PAGE and autoradiography
[2] = target: GST-Bcl-xL fusion protein (human) [GST: P08515]; experiment: as above
[3] = target: GST-Bcl-2 fusion protein (human) [GST: P08515]; experiment: GST pull-down of 35S-labeled protein (FIG. 5A legend)
[4] = target: GST-Bcl-xL fusion protein (human) [GST: P08515]; experiment: as above
[5] = target: T7-epitope tagged Bcl-xL (human) (UniProt Q07817); experiment: co-immunoprecipitation from 293 cells (FIG. 5B legend)
[6] = target: T7-epitope tagged Bcl-xL (human) (UniProt Q07817); experiment: co-immunoprecipitation from 293 cells (anti-Flag IP, T7-antibody immunoblot)

Measured: binding

Bik (from UniProt Q13323 1-160)
binds: [1] | [2] | [3] | [4]

Flag-epitope tagged Bik (from UniProt Q13323 1-160)
binds: [5] | [6]
